Experimental data reported in patent US11116738B2, “Methods for treating neutropenia using retinoid agonists” (CHILDREN'S HOSPITAL LOS ANGELES, priority 2012, dated 2021).
Some of these results come from one statement about several compounds together.

Test system: CD34+ cells
Assay: Morphologic analysis of granulocytic differentiation of CD34+ cells
Assay type: cell-based, human
Conditions: Am80 10 nM, by day 13
Method: Normal human primitive umbilical cord blood CD34+ cells were from AllCells (Emeryville, Calif.). CD34+ cells were expanded^29 about 50× by using StemSpan serum-free medium (StemCell Technologies, Vancouver, Canada) for 6 days according to the manufacturer's protocol. To induce granulopoiesis, CD34+ cells were cultured with myeloid medium supplemented with 25 ng/ml of G-CSF^17,29 for 6-12 days. Lymphoid and erythroid cells were blocked during granulopoiesis by addition of hydrocortisone and exclusion of erythropoietin.^17, 29 All-trans retinoic acid (RA) was from Sigma (St. Louis, Mo.), while the retinoid agonists Am80, CH55, and IT-YA-01115 (ITYA) were from Research Foundation ITSUU Laboratory (Tokyo, Japan). Each retinoid compound was dissolved in ethanol. The experimentally determined conditions, using 25 ng/ml of G-CSF^17,29 or 2.5 nM of Am80 for granulocytic induction of 6 days (FIG. 1), were applied in the studies.
Cell suspensions were cytocentrifuged onto Micro slides, followed by methanol fixation and stained with Wright-Giemsa (Sigma) as described.^17,29 The morphologic indicators of differentiation were evaluated under a Zeiss Axioplan microscope, and images were color balanced with Adobe Photoshop as described.^17 […]

`CC1(C)CCC(C)(C)c2cc(NC(=O)c3ccc(C(=O)O)cc3)ccc21` [Am80, tamibarotene] was tested, and the granulocytic differentiation was greater than 75%.
